The results in this text go back to article PMC5824958.

The assay has as its target T1, BRI2 (integral membrane protein 2B) (rat (endogenous in brain)) (UniProt Q5XIE8).
T1 sequence: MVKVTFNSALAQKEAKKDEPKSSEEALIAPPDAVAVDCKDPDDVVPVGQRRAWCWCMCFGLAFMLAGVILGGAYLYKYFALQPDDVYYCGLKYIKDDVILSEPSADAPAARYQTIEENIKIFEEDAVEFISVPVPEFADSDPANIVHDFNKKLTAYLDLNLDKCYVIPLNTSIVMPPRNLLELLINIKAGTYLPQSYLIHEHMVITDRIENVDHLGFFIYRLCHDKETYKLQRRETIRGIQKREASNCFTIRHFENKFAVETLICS
Put plainly: affinity purification with mass spectrometry; mouse anti-BRI2 antibody (N-terminal region) on Dynabeads Protein G; pre-cleared rat cerebral cortex, hippocampus and cerebellum lysates (50 mM Tris-HCl pH 8.0, 120 mM NaCl, 4% CHAPS), overnight at 4 °C; co-precipitated proteins identified by nano-HPLC-MS/MS; hits absent from the two mock IPs or with a PSM ratio >= 2.0.

These are yes or no findings as the source states them, for the method shown. In cells and extracts the contact can be indirect. Here binding means that the protein was enriched with, or labelled near, the bait; the list need not be complete.

B1: Guanine deaminase (protein, UniProt Q9WTT6 1-454)
chain: MCAARRRELALIFRGTFVHSTWTCPMEVLRDHLLGVSDSGKIVFLEESSQQEKLAKEWCFKPCEIRELSHHEFFMPGLVDTHIHAPQYAFAGSNVDLPLLDWLNKYTFPTEKRFQSTDVAEEVYTRVVRRTLKNGTTTACYFGTIHTDSSLILAEITDKFGQRAFVGKVCMDLNNTVPEYKETTEESVKETERFVSEMLQKNYSRVKPIVTPRFSLSCTETLMSELGNIAKTHDLYIQSHISENREEIEAVKSLYPGYKNYTDVYDKNNLLTNKTVMAHGCYLSEEELNVFSERGASIAHCPNSNLSLSSGLLNVLDVLKHKVKIGLGTDVAGGYSYSMLDAIRRAVMVSNVLLINKVNEKSLTLKEVFRLATLGGSQALGLDREIGNFEVGKDFDALLINPRASDSPIDLFCGDFVGDISEAVIQKFLYLGDDRNIEEVYVGGKQVVPFSSSV
Turning to B1, the binding result is “binds”.

B2: Hyaluronan and proteoglycan link protein 2 (protein, UniProt Q9ESM2 28-341)
chain: NPAPHPGPHYLLPPIHEVIHSRRGATATLPCVLGTSPPSYKVRWSKVEPGELRETLILITNGLHARDYGLLGGRASLRRGHRLDASLIIKNVRLEDEGRYRCELINGIEDESVALTLRLEGVVFPYQPSRGRYQFNYFEAKRACEEQDGRLATYSQLYQAWTEGLDWCNAGWLLEGSVRYPVLNARAPCGGHGRPGIRSYGPRDRSRDRYDAFCFTSALAGQVFFVPGRLTLSEAHAVCRRRGAVVAKVGHLYAAWKFSGLDRCDGGWLADGSVRFPITTPRPRCGGLPDPGVRSFGFPRPQQAAYGTYCYAEK
Consider B2, for which the binding entry is “binds”.

B3: Excitatory amino acid transporter 4 (protein, UniProt O35921 1-561)
chain: MSSHGNSLFLRESGAGGGCLQGLQDSLQQRALRTRLRLQTMTREHVRRFLRRNAFILLTVSAVIIGVSLAFALRPYQLTYRQIKYFSFPGELLMRMLQMLVLPLIVSSRVTGMASLDNKATGRMGMRAAVYYMVTTVIAVFIGILMVTIIHPGKGSKEGLHREGRIETVPTADAFMDLVRNMFPPNLVEACFKQFKTQYSTRVVTRTIVRTDNGSELGASISPPSSAENETSILENVTRALGTLQEVISFEETVPVPGSANGINALGLVVFSVAFGLVIGGMKHKGRVLRDFFDSLNEAIMRLVGIIIWYAPVGILFLIAGKILEMEDMAVLGGQLGMYTLTVIVGLFLHAGGVLPLIYFLVTHRNPFPFIGGILQALITAMGTSSSSATLPITFRCLEEGLGVDRRITRFVLPVGATVNMDGTALYEALAAIFIAQVNNYELNLGQITTISITATAASVGAAGIPQAGLVTMVIVLTSVGLPTEDITLIIAVDWFLDRLRTMTNVLGDSIGAAVIEHLSQRELELQEAELTLPSLGKPYKSLMAQAKGASRGRGGNESVM
Turning to B3, the binding result was “binds”.

B4: Gamma-aminobutyric acid type B receptor subunit 2 (protein, UniProt O88871 41-940)
chain: WTRGAPRPPPSSPPLSIMGLMPLTKEVAKGSIGRGVLPAVELAIEQIRNESLLRPYFLDLRLYDTECDNAKGLKAFYDAIKYGPNHLMVFGGVCPSVTSIIAESLQGWNLVQLSFAATTPVLADKKKYPYFFRTVPSDNAVNPAILKLLKHFRWRRVGTLTQDVQRFSEVRNDLTGVLYGEDIEISDTESFSNDPCTSVKKLKGNDVRIILGQFDQNMAAKVFCCAFEESMFGSKYQWIIPGWYEPAWWEQVHVEANSSRCLRRSLLAAMEGYIGVDFEPLSSKQIKTISGKTPQQFEREYNSKRSGVGPSKFHGYAYDGIWVIAKTLQRAMETLHASSRHQRIQDFNYTDHTLGKIILNAMNETNFFGVTGQVVFRNGERMGTIKFTQFQDSREVKVGEYNAVADTLEIINDTIRFQGSEPPKDKTIILEQLRKISLPLYSILSALTILGMIMASAFLFFNIKNRNQKLIKMSSPYMNNLIILGGMLSYASIFLFGLDGSFVSEKTFETLCTVRTWILTVGYTTAFGAMFAKTWRVHAIFKNVKMKKKIIKDQKLLVIVGGMLLIDLCILICWQAVDPLRRTVERYSMEPDPAGRDISIRPLLEHCENTHMTIWLGIVYAYKGLLMLFGCFLAWETRNVSIPALNDSKYIGMSVYNVGIMCIIGAAVSFLTRDQPNVQFCIVALVIIFCSTITLCLVFVPKLITLRTNPDAATQNRRFQFTQNQKKEDSKTSTSVTSVNQASTSRLEGLQSENHRLRMKITELDKDLEEVTMQLQDTPEKTTYIKQNHYQELNDILSLGNFTESTDGGKAILKNHLDQNPQLQWNTTEPSRTCKDPIEDINSPEHIQRRLSLQLPILHHAYLPSIGGVDASCVSPCVSPTASPRHRHVPPSFRVMVSGL
For B4, the binding result is “binds”.

B5: Ankyrin repeat and sterile alpha motif domain-containing protein 1B (protein, UniProt P0C6S7 1-1260)
chain: MGKDQELLEAARTGNVALVEKLLSGRKGGILGGGSGPLPLSNLLSIWRGPNVNCTDSSGYTALHHAALNGHKDIVLKLLQFEASTNVADNKGYFPIHLAAWKGDVEIVKILIHHGPSHSRVNEQNNENETALHCAAQYGHSEVVAVLLEELTDPTIRNSKLETPLDLAALYGRLRVVKMIISAHPNLMSCNTRKHTPLHLAARNGHKAVVQVLLEAGMDVSCQTEKGSALHEAALFGKVDVVRVLLETGIDANIKDSLGRTVLDILKEHPSQKSLQIATLLQDYLEGVGRSVVLEEEHAQEDTAQETRLSSPAQSPSQKTKSETVTGELSKLLDEIKLCQEKDYSFEDLCHTISDHYLDNLSKISEEELGKNGSQSVRTSSTINLSPGEVEDEEEDPNSCGPTGLWEALTPCNGCRNLGFPMLAQESYPKKRNYPMEIVPSASLDTFPSENENFLCELVDTAVTKKPCSLEIARAPSPRTDNASEVAITAPGTGHHRNSSTGPTPDCSPPSPDTALKNIVKVIRPQPKQRTSIVSSLDFQRMNHNQEYFEISTSTGCTSFTSSPPVSPPTSSVETTEIKNEGAEHTDDLSQQEDDEPPKEYDAGQFAGLLHGSSPACEAPENPFHLYGKRNQGEDGQEEASLANSPLPFKQTPIENNPEPSVKKIKPKVVSRTIFHKRSHQLENHTIVGTRMSRGGSRNGDQWGVNPGGFVERACTLGRIRSLPKALIDMHLSKNVSKSDSDLIAYPSKDKARVNWSKSSTAERSSKDNSERTPSFTSEWEEIDKIMNSIDVGINSELEGMNGEATRPRCPVQTVGQWLESIGLPQYENHLTANGFDNVQFMGSNVMEDQDLLEIGILNSGHRQRILQAIQLLPKMRPIGHDGYHPTSVAEWLDSIELGDYTKAFLINGYTSMDLLKKIWELELINVLKISLIGHRKRILASLGDRLHEDPPQKPPRSITLREPSGNHTPPQLSPSLSQSTYTTGGSLDVPHIIMQGDARRRRNENYFDDIPRSKLERQMAQTGDWGEPSITLRPPNEATASTPVQYWQHHPEKLIFQSCDYKAFYLGSMLIKELRGTESTQDACAKMRANCQKSTEQMKKVPTIILSVSYKGVKFIDAANKNIIAEHEIRNISCAAQDPEDLSTFAYITKDLKSNHHYCHVFTAFDVNLAYEIILTLGQAFEVAYQLALQARKGGHSSTLPESFENKPSKPIPKPRVSIRKSVQIDPSEQKTLANLPWIVEPGQEAKRGINTKYETTIF
Turning to B5, the binding entry is “binds”.

B6: Limbic system-associated membrane protein (protein, UniProt Q62813 29-315)
chain: VRSVDFNRGTDNITVRQGDTAILRCVVEDKNSKVAWLNRSGIIFAGHDKWSLDPRVELEKRHALEYSLRIQKVDVYDEGSYTCSVQTQHEPKTSQVYLIVQVPPKISNISSDVTVNEGSNVTLVCMANGRPEPVITWRHLTPLGREFEGEEEYLEILGITREQSGKYECKAANEVSSADVKQVKVTVNYPPTITESKSNEATTGRQASLKCEASAVPAPDFEWYRDDTRINSANGLEIKSTEGQSSLTVTNVTEEHYGNYTCVAANKLGVTNASLVLFRPGSVRGIN
In the case of B6, the binding result is “binds”.

B7: Ketimine reductase mu-crystallin (protein, UniProt Q9QYU4 1-313)
chain: MRRAPAFLSADEVQDHLRSSSLLIPPLEAALANFSKGPDGGVMQPVRTVVPVAKHRGFLGVMPAYSAAEDALTTKLVTFYEGHSNNAVPSHQASVLLFDPSNGSLLAVMDGNVITAKRTAAVSAIATKFLKPPGSDVLCILGAGVQAYSHYEIFTEQFSFKEVRMWNRTRENAEKFASSVQGDVRVCSSVQEAVTGADVIITVTMATEPILFGEWVKPGAHINAVGASRPDWRELDDELMKQAVLYVDSREAALKESGDVLLSGADIFAELGEVVSGAKPAYCEKTTVFKSLGMAVEDLVAAKLVYDSWSSGK
On to B7, for which the binding result is on record as “binds”.

B8: Excitatory amino acid transporter 1 (protein, UniProt P24942 1-543)
chain: MTKSNGEEPRMGSRMERFQQGVRKRTLLAKKKVQNITKEDVKSYLFRNAFVLLTVSAVIVGTILGFALRPYKMSYREVKYFSFPGELLMRMLQMLVLPLIISSLVTGMAALDSKASGKMGMRAVVYYMTTTIIAVVIGIIIVIIIHPGKGTKENMYREGKIVQVTAADAFLDLIRNMFPPNLVEACFKQFKTSYEKRSFKVPIQANETLLGAVINNVSEAMETLTRIREEMVPVPGSVNGVNALGLVVFSMCFGFVIGNMKEQGQALREFFDSLNEAIMRLVAVIMWYAPLGILFLIAGKILEMEDMGVIGGQLAMYTVTVIVGLLIHAVIVLPLLYFLVTRKNPWVFIGGLLQALITALGTSSSSATLPITFKCLEENNGVDKRITRFVLPVGATINMDGTALYEALAAIFIAQVNNFDLNFGQIITISITATAASIGAAGIPQAGLVTMVIVLTSVGLPTDDITLIIAVDWFLDRLRTTTNVLGDSLGAGIVEHLSRHELKNRDVEMGNSVIEENEMKKPYQLIAQDNEPEKPVADSETKM
Regarding B8, the binding entry was “binds”.

B9: EH domain-containing protein 3 (protein, UniProt Q8R491 1-535)
chain: MFSWLGNDDRRKKDPEVFQTVSEGLKKLYKTKLLPLEEYYRFHEFHSPALEDADFDNKPMVLLVGQYSTGKTTFIRYLLEQDFPGMRIGPEPTTDSFIAVMQGDVEGIIPGNALVVDPKKPFRKLNAFGNAFLNRFVCAQLPNAVLESISVIDTPGILSGEKQRISRGYDFAAVLEWFAERVDRIILLFDAHKLDISDEFSEVIKALKNHEDKMRVVLNKADQIETQQLMRVYGALMWSLGKIVNTPEVIRVYIGSFWSHPLLIPDNRKLFEAEEQDLFKDIQSLPRNAALRKLNDLIKRARLAKVHAYIISSLKKEMPSVFGKDTKKKELVNNLAEIYGRIEREHQISPGDFPNLKRMQDQLQAQDFSKFQPLKSKLLEVVDDMLAHDIAQLMVLVRQEETQRPVQMVKGGAFEGTLQGPFGHGYGEGAGEGIDDAEWVVARDKPMYDEIFYTLSPVDGKITGANAKKEMVRSKLPNSVLGKIWKLADIDKDGMLDDEEFALANHLIKVKLEGHELPSELPAHLLPPSKRKVAE
B9: the binding result is “binds”.
